Assay results reported in PubChem BioAssay AID445 (National Center for Advancing Translational Sciences (NCATS), 2006).
The other results are listed elsewhere or left out. These are further read-outs of the screen, such as a control signal, another cell line or another target. No call is given for them. The list favours compounds with an active or inconclusive main result. The note in brackets gives the kind of curve behind each potency; many fits are weak.

Assay: IkB Signaling
Conditions: ABC-DLBCL IkBa-CBG/CBR dual luciferase ratio (green luciferase fused to IkBa over red control in OCI-Ly3 lymphoma cells), 4 h
Method in brief: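 In this assay, an IκBα–CBG68 fusion accumulates when IKK-driven degradation is blocked; native CBR normalizes for cell number. OCI-Ly3 cells were treated 4 h with compound and doxycycline, then green and red light read after Chroma-Glo addition.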

[1] = measured here: control luc red channel unless noted
[2] = measured here: IkB-luc green channel
[3] = measured here: control luc red channel

SMILES: O=C(O)CCC(=O)NCc1ccc2[nH]c3c(c2c1)CCCC3
- AC50 [1]: 3.98 µM [falling, partial curve]

SMILES: CCN(c1ccc(C)cc1C)S(=O)(=O)c1nnc(NC(=O)CC(C)C)s1
- AC50 [1]: 0.501 µM [falling, full curve]

SMILES: CCOC(=O)c1cc2c(=O)n3ccccc3nc2n(Cc2ccco2)c1=NC(=O)c1ccccc1OC
- AC50 [1]: 10 µM [falling, partial curve]

SMILES: O=C(Cn1c(=O)n(-c2ccc(F)cc2)c(=O)c2sccc21)Nc1cccc(C(F)(F)F)c1
- AC50 [1]: 31.6 µM [falling, single point]

SMILES: Cc1cc(C)cc(OCC(=O)Nc2cccc(-c3nc4ccccc4[nH]3)c2)c1
- AC50 [1]: 7.94 µM [falling, partial curve]

SMILES: COc1cccc(CNC(=O)Cn2c(=O)oc3cc(S(=O)(=O)N4CCC(C)CC4)ccc32)c1
- AC50 [1]: 10 µM [falling, partial curve]

SMILES: COc1ccc(Cn2c(C(=O)O)c(CNCCc3ccccc3Cl)c3ccc(C)cc32)cc1
- AC50 [1]: 12.6 µM [falling, partial curve]

SMILES: CCC(=O)N1CCc2cc(S(=O)(=O)CCC(=O)NCc3ccc(F)cc3)ccc21
- AC50 [1]: 10 µM [rising, partial curve]

SMILES: Cc1ccccc1NC(=O)CSc1nnc(-c2ccoc2C)n1CCc1ccccc1
- AC50 [1]: 31.6 µM [falling, partial curve]

SMILES: Cc1ccc(C(=O)N2CCN(c3ccccc3F)CC2)cc1NC(=O)c1nsc2ccccc12
- AC50 [1]: 3.16 µM [falling, full curve]

SMILES: COc1cccc(CNc2nc3nc(C)c(Cl)c(C)n3n2)c1
- AC50 [1]: 6.31 µM [falling, partial curve]

SMILES: COCCNC(=O)C(=O)Nc1c2c(nn1-c1ccccc1)CS(=O)(=O)C2
- AC50 [1]: 5.01 µM [rising, full curve]

SMILES: CCn1cnc2c1c(=O)n(Cc1csc(-c3ccccc3)n1)c(=O)n2Cc1ccccc1
- AC50 [1]: 20 µM [falling, partial curve]

SMILES: CCOc1ccc(CCNC(=O)Cn2nc(C)c3c(C)n(-c4ccccc4)nc3c2=O)cc1OCC
- AC50 [1]: 39.8 µM [falling, single point]

SMILES: CCOC(=O)c1c(C)sc(-c2c(-c3cc(C)ccc3C)[nH]c3c2c(=O)[nH]c(=O)n3C)c1O
- AC50 [1]: 20 µM [falling, single point]

SMILES: Cc1cc(C)nc(SCC(=O)Nc2ccc(N3CCOCC3)c(Cl)c2)n1
- AC50 [1]: 10 µM [falling, partial curve]

SMILES: CC(C)c1ccc(S(=O)(=O)N2CCN(CCC(=O)Nc3ccc(N(C)C)cc3)CC2)cc1
- AC50 [1]: 20 µM [falling, partial curve]

SMILES: CCn1cc2nc(SCc3cccc(OC)c3)n(Cc3ccc(Cl)cc3)c(=O)c2n1
- AC50 [1]: 20 µM [falling, single point]

SMILES: COc1ccccc1NC(=O)c1cc(C(=O)O)ccc1C(=O)O
- AC50 [1]: 10 µM [falling, partial curve]

SMILES: COc1ccc(OC)c(CCNC(=O)Cn2sc3nc(C)cc(C)c3c2=O)c1
- AC50 [2]: 39.8 µM [falling, single point]
- AC50 [3]: 25.1 µM [falling, single point]

SMILES: CC1=C(C(=O)Nc2ccccc2Cl)C(c2cccs2)n2ncnc2N1 (stereo not given)
- AC50 [1]: 31.6 µM [falling, partial curve]

SMILES: O=S(=O)(NCc1ccccc1)c1ccc2[nH]c3c(c2c1)CCCCC3
- AC50 [1]: 39.8 µM [rising, partial curve, poor fit]

SMILES: COc1cccc(NS(=O)(=O)c2ccc3[nH]cc(C(=O)NC4CCCCC4)c(=O)c3c2)c1
- AC50 [1]: 25.1 µM [falling, partial curve]

SMILES: COc1ccccc1CCNC(=O)Cc1c(C)c2c(cc(C)c3c(C)coc32)oc1=O
- AC50 [1]: 0.316 µM [rising, full curve, poor fit]

SMILES: COc1ccc(N2C(=O)C(CC(=O)Nc3ccc(F)cc3)N(CCC3=CCCCC3)C2=O)cc1 (stereo not given)
- AC50 [1]: 20 µM [falling, partial curve]

SMILES: O=C(NC1CC(=O)N(c2cccc(F)c2)C1)C1CCCCC1 (stereo not given)
- AC50 [1]: 3.98 µM [falling, single point]

SMILES: COc1ccc(Cl)cc1NC(=O)CN1c2ccccc2S(=O)(=O)c2ccccc21
- AC50 [1]: 5.01 µM [falling, partial curve]

SMILES: O=C(CSC1=Nc2ccccc2N=C(c2ccc(F)cc2)C1)Nc1cc(F)ccc1F
- AC50 [1]: 3.16 µM [falling, single point]

SMILES: COc1ccccc1CCNC(=O)c1cc2ccccn2n1
- AC50 [1]: 15.8 µM [falling, partial curve]

SMILES: CCCN1C(=O)CN(C2CCCCCC2)C(=O)C1c1ccc(OCC)c(OC)c1 (stereo not given)
- AC50 [1]: 1.26 µM [rising, partial curve]

SMILES: COc1ccc(CNC(=O)C2COc3ccccc3O2)c(OC)c1 (stereo not given)
- AC50 [1]: 20 µM [falling, partial curve]

SMILES: CCOc1ccccc1CNC(=O)CCCn1nc(C)c2sc3ccccc3c2c1=O
- AC50 [1]: 15.8 µM [falling, partial curve]

SMILES: COc1cc(NC(=O)Cn2nc(C(F)(F)F)c3c2CCCC3)cc(OC)c1OC
- AC50 [1]: 20 µM [falling, single point]

SMILES: O=C1C(C=NCc2ccco2)=C(O)c2ccccc21
- AC50 [1]: 12.6 µM [falling, partial curve]

SMILES: O=C(Nc1ccc(F)cc1F)c1cc2ccc3cccnc3c2[nH]1
- AC50 [1]: 0.158 µM [falling, partial curve]

SMILES: CCOC(=O)c1ccc(NC(=O)c2c(NCc3cccc(OC)c3)sc3c2CCC3)cc1
- AC50 [1]: 7.94 µM [rising, single point]

SMILES: Cn1cc(S(=O)(=O)N2CCCCCC2)cc1C(=O)Nc1ccccc1F
- AC50 [1]: 10 µM [falling, partial curve]

SMILES: CN1CCN(C(=O)c2cc(-c3ccccc3)on2)CC1
- AC50 [1]: 12.6 µM [falling, partial curve]

SMILES: COc1ccc2oc(-c3ccc(C)c(NC(=O)c4sc5ccccc5c4Cl)c3)nc2c1
- AC50 [1]: 39.8 µM [falling, partial curve, poor fit]

SMILES: CCc1cc2c(N3CCN(c4nnc(CC)s4)CC3)ncnc2s1
- AC50 [1]: 15.8 µM [falling, partial curve]

SMILES: COc1ccc2c(Cc3c4ccccc4cc4ccccc34)cncc2c1O
- AC50 [1]: 3.98 µM [rising, partial curve] [measured here: IkB-luc green channel]

SMILES: COc1cccc(C(=O)NCC(c2ccc(N(C)C)cc2)N2CCc3ccccc32)c1OC (stereo not given)
- AC50 [1]: 31.6 µM [falling, single point]

SMILES: COc1cccc(-c2nn(C)c3sc(C(=O)NCc4ccc(C)cc4)cc23)c1
- AC50 [1]: 3.98 µM [falling, full curve]

SMILES: CCOc1ccc(NS(=O)(=O)c2ccc3[nH]cc(C(=O)NC(C)CC)c(=O)c3c2)cc1 (stereo not given)
- AC50 [1]: 15.8 µM [falling, partial curve]

SMILES: Cc1ccc(NC(=O)CSc2ncc3c(n2)-c2ccccc2N(C)S3(=O)=O)c(Cl)c1
- AC50 [2]: 3.16 µM [rising, single point]
- AC50 [3]: 1.26 µM [rising, full curve]

SMILES: CCC(CC)C(=O)Nc1cccc(-c2nc3ncccn3c2C)c1
- AC50 [1]: 39.8 µM [falling, single point]

SMILES: Cc1cccc(/C=C\c2ccccc2)n1
- AC50 [1]: 3.16 µM [rising, partial curve]

SMILES: CCC1CN(C(=O)N2CCC(C(=O)NCCCc3ccccc3)CC2)c2ccccc2O1 (stereo not given)
- AC50 [1]: 15.8 µM [falling, partial curve]

SMILES: Cc1cccc(-c2noc(CCC(=O)Nc3ccccc3)n2)c1
- AC50 [1]: 25.1 µM [falling, partial curve]

SMILES: COc1cccc(C(=O)Nc2cccc(-c3nnc(-c4ccccc4)o3)c2)c1
- AC50 [1]: 10 µM [falling, partial curve]

SMILES: CCN1CCN(c2cc(C)c3cc(NC(=O)c4cc(Br)ccc4Cl)ccc3n2)CC1
- AC50 [1]: 39.8 µM [falling, single point]

SMILES: CCCC12CN3CC(C)(CN(C1)C3c1cn(CC)c3ccccc13)C2=O (stereo not given)
- AC50 [1]: 39.8 µM [falling, single point]

SMILES: CCOC(=O)c1c(C)[nH]c(CCC(=O)Nc2ccccc2OCC)c1C
- AC50 [1]: 31.6 µM [falling, partial curve]

SMILES: O=C(NCc1nc2ccccc2[nH]1)c1ccc(Cl)c(S(=O)(=O)N2CCCC2)c1
- AC50 [1]: 6.31 µM [rising, single point] [measured here: IkB-luc green channel]

SMILES: O=C(NCc1ccccc1Cl)c1ccc2nc(Cc3ccccc3)oc2c1
- AC50 [1]: 31.6 µM [falling, single point]

SMILES: CCC(=O)N1c2ccccc2CC1C(=O)NCCN1CCN(c2cccc(Cl)c2)CC1 (stereo not given)
- AC50 [1]: 20 µM [falling, partial curve]

SMILES: COc1cccc(-c2nnc(NC(=O)c3ccc(S(=O)(=O)N4CC(C)OC(C)C4)cc3)o2)c1 (stereo not given)
- AC50 [2]: 31.6 µM [rising, single point]
- AC50 [3]: 3.98 µM [falling, partial curve]

SMILES: CC1(C)Cc2c(C#N)c(N3CCCC3)nc(-c3ccco3)c2CO1
- AC50 [1]: 10 µM [falling, partial curve]

SMILES: COc1ccc(C(=O)Nc2cc3cc(Cl)ccc3oc2=O)cc1OC
- AC50 [1]: 3.16 µM [rising, full curve]

SMILES: Cc1cccc2c1-c1sc(C(=O)Nc3ccccc3C(N)=O)cc1CO2
- AC50 [1]: 0.0158 µM [falling, full curve]

SMILES: Cc1ccccc1OCC(=O)NCC(c1ccc(Cl)cc1)N1CCOCC1 (stereo not given)
- AC50 [1]: 31.6 µM [falling, single point]

SMILES: Cc1cc(C)cc(NC(c2cccc(Cl)c2)c2nnc(-c3ccccc3)o2)c1 (stereo not given)
- AC50 [1]: 39.8 µM [falling, single point]
